Source: PMC9687146
Results are given in words; binding and its absence hold for the method and conditions named. In cells and extracts the contact can be indirect. Some entries that bind do so weakly or less than the wild type.

Sequences of proteins named here, by UniProt entry; tags and fusion partners are left off. Residues count along the entry.
UniProt P11021, residues 19-654: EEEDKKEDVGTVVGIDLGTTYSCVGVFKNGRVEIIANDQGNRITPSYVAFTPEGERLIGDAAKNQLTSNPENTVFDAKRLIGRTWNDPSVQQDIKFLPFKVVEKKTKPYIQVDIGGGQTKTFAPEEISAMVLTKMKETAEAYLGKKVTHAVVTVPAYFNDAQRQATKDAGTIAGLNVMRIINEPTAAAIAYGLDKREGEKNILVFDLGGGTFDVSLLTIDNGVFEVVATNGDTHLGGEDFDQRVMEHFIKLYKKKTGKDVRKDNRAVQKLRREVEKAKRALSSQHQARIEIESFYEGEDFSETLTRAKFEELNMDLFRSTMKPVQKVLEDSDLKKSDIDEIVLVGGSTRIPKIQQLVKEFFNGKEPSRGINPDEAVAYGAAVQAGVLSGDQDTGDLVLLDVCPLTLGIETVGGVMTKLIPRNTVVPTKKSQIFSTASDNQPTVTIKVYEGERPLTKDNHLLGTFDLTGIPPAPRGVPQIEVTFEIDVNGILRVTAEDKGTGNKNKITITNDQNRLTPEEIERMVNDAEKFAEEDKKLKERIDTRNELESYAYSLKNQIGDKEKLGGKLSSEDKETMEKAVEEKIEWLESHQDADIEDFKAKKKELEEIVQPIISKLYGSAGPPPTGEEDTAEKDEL

Target: T1, MTJ1 (human (endogenous in H460)) (UniProt Q96KC8)
T1 sequence: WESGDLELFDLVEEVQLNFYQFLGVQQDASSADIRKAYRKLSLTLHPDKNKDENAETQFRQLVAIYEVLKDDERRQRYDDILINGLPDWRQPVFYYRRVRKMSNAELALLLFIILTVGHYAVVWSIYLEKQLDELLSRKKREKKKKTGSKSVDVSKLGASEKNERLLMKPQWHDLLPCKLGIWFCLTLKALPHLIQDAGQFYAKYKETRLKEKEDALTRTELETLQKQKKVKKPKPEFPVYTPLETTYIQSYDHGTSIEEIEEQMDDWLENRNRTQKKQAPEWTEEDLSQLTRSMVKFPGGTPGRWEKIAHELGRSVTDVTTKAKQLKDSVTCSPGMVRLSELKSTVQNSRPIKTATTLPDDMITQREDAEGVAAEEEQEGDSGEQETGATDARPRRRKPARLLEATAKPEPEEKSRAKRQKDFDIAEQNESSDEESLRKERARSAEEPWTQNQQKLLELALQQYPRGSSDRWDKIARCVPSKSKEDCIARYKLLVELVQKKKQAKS
Test: co-IP; Dynabeads Protein G with anti-GRP78 or anti-MTJ1 antibody; RIPA lysates of H460 cells, untreated or treated with 5 µM cisplatin for 6 days (senescent); 4 °C overnight; Western blot for MTJ1 or GRP78

Glucose-regulated protein 78 (GRP78) (from UniProt P11021 19-654)
binding: binds
